Results reported in PubChem BioAssay AID493014 (National Center for Advancing Translational Sciences (NCATS), 2011).
This is one part of the list. The main result of the screen is listed elsewhere. These columns were measured beside it and carry no call. The list favours compounds with an active or inconclusive main result. Words in brackets tell the shape of the fitted curve; partial curves, single points and poor fits give uncertain potencies.

Assay: qHTS Assay to Find Inhibitors of Chronic Active B-Cell Receptor Signaling
Details: ABC-DLBCL IkBa-CBG/CBR reporter, luminescence ratio (green luciferase fused to IkBa over red control in TMD8 lymphoma cells), 4 h
Outline: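 TMD8 human ABC-DLBCL cells with doxycycline-inducible IκBα–green luciferase fusion and unfused red luciferase, in 0.5% FBS medium; compounds up to 46 uM, 4 h at 37C. Green/red luminescence ratio, filter-overlap corrected, fitted to concentration-response curves.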

[1] = measured here: CBR red luminescence, cell number
[2] = measured here: IkBa-CBG green luminescence

SMILES: O=C(NCc1ccncc1)/C(=C/c1cccc([N+](=O)[O-])c1)NC(=O)c1ccccc1
- AC50 [1]: 20 µM [rising, single point]

SMILES: O=C(NCC1CCCO1)c1csc(Nc2cccc3ccccc23)n1 (stereo not drawn)
- AC50 [1]: 31.6 µM [falling, single point]

SMILES: CN(C(=O)/C=C/c1ccccc1)C1CCS(=O)(=O)C1 (stereo not drawn)
- AC50 [1]: 2.91 µM [rising, full curve]

SMILES: COC(=O)c1cc(C(=O)NCc2ccccc2)c(=O)[nH]c1C
- AC50 [1]: 1.12 µM [falling, full curve, poor fit]

SMILES: Cc1ccc(C)c(NC(=S)c2ccc3ccccc3n2)c1
- AC50 [1]: 23.1 µM [rising, single point]

SMILES: COc1cccc(NC(=O)Nc2cccnc2)c1
- AC50 [1]: 25.1 µM [falling, partial curve, poor fit]

SMILES: CC1(C)Cc2cccc(OCC(=O)Nc3nccs3)c2O1
- AC50 [1]: 6.31 µM [falling, single point]

SMILES: COc1ccccc1NC(=O)CSC1=NC(=O)C(NC(C)=O)C(=O)N1 (stereo not drawn)
- AC50 [1]: 18.4 µM [falling, single point]

SMILES: O=c1[nH]cnc2nn(-c3ccccc3)nc12
- AC50 [1]: 17.8 µM [falling, single point]

SMILES: COc1ccc(/C=N\NC(=O)c2sccc2C)cc1Cn1nc(C)cc1C
- AC50 [1]: 8.91 µM [falling, partial curve, poor fit]

SMILES: COc1ccc(-c2nc(SCC(=O)Nc3nccs3)c(-c3ccc(Cl)cc3)[nH]2)cc1
- AC50 [1]: 32.6 µM [falling, single point]
- AC50 [2]: 14.6 µM [rising, partial curve, poor fit]

SMILES: CCN(CC)C(=O)[C@H]1C[C@H](CC(=O)NCc2ccc(OC)c(OC)c2)C(=O)N2CCc3c([nH]c4ccc(Cl)cc34)[C@]12C
- AC50 [1]: 20.6 µM [falling, partial curve, poor fit]

SMILES: CC1(C)C2CC=C(/C=N/NC(=O)c3ccccc3O)C1C2 (stereo not drawn)
- AC50 [1]: 29.1 µM [falling, partial curve, poor fit]

SMILES: Fc1ccc(NC(=S)Nc2cccc(Cl)c2)cc1
- AC50 [1]: 0.517 µM [rising, full curve, poor fit]

SMILES: O=C(Nc1ccon1)c1cc2c(s1)CCCCCC2
- AC50 [1]: 14.6 µM [falling, single point]

SMILES: CCn1cc(/C=N/NC(=O)c2ccc3c(c2)OCO3)cn1
- AC50 [1]: 9.2 µM [falling, partial curve]

SMILES: O=C(Nc1ccc(F)cc1F)c1cc(Cl)sc1Cl
- AC50 [1]: 0.631 µM [rising, full curve, poor fit]

SMILES: CC(C)CN(CC(C)C)S(=O)(=O)c1cc([N+](=O)[O-])ccc1N1CCCCCC1
- AC50 [1]: 3.98 µM [falling, full curve, poor fit]

SMILES: CCOC(=O)c1c(C(C)(C)C)oc2ccc(O)cc12
- AC50 [1]: 31.6 µM [rising, single point]

SMILES: C=C(C)c1cccc(C(C)(C)NC(=O)Nc2ccc(OC)nc2)c1
- AC50 [1]: 35.5 µM [falling, single point]

SMILES: OCc1cc(Br)ccc1OCc1nc2ccccc2s1
- AC50 [1]: 0.355 µM [falling, full curve]

SMILES: N#CC1=C(N)NC(SCc2ccc(Br)cc2)=C(C#N)C12CCCCC2
- AC50 [1]: 23.1 µM [falling, single point]
- AC50 [2]: 20.6 µM [rising, single point]

SMILES: Cc1cccc(Cn2cc(/C=C/[N+](=O)[O-])c3ccccc32)c1
- AC50 [2]: 35.5 µM [falling, partial curve, poor fit]

SMILES: CC(=O)Cc1nsc(NC(=O)c2ccc(COc3ccccc3Cl)o2)n1
- AC50 [1]: 25.1 µM [falling, single point]

SMILES: Cc1ccccc1NC(=O)C(=O)NCCc1ccccc1
- AC50 [1]: 13 µM [falling, partial curve]

SMILES: O=C(NCCC1=CCCCC1)c1cc(-c2ccccn2)nc2ccccc12
- AC50 [1]: 25.1 µM [rising, partial curve, poor fit]

SMILES: Cc1cc(/C=C2/C(=N)N3C(c4ccccc4)=CSC3=NC2=O)c(C)n1-c1ccccc1
- AC50 [1]: 0.103 µM [rising, partial curve, poor fit]

SMILES: Cc1ccc(-n2ncc(C(=O)NCc3ccc4c(c3)OCO4)c2NC(=O)c2ccco2)cc1C
- AC50 [1]: 35.5 µM [rising, partial curve, poor fit]

SMILES: Cc1cccc(C)c1N1C(=O)CC(N2CCSCC2)C1=O (stereo not drawn)
- AC50 [1]: 35.5 µM [falling, single point]

SMILES: COc1ccc(CNc2ncccc2[N+](=O)[O-])cc1
- AC50 [1]: 6.31 µM [rising, full curve, poor fit]

SMILES: Cc1[nH]c2ccccc2c1C(=O)CN1CCSCC1
- AC50 [1]: 10 µM [rising, partial curve]

SMILES: CCOC(=O)C1=C(CSc2nc(C)cc(C)c2C#N)OC(N)=C(C#N)C1c1ccccc1 (stereo not drawn)
- AC50 [1]: 35.5 µM [falling, single point]

SMILES: Fc1ccc2[nH]c3c(NCc4ccccc4)ncnc3c2c1
- AC50 [1]: 31.6 µM [falling, single point]

SMILES: O=C(NCC(=O)N(c1cccnc1)C(C(=O)NC1CCCC1)c1ccccc1)c1ccco1 (stereo not drawn)
- AC50 [1]: 0.708 µM [rising, full curve, poor fit]

SMILES: O=C1N[C@H](Cc2c[nH]c3ccccc23)COC(=O)[C@H](Cc2ccc(F)cc2)C/C=C\C[C@H]1CC(=O)N(CCO)Cc1ccccc1
- AC50 [1]: 29.1 µM [falling, single point]

SMILES: CC(C)(C)OC(=O)N/N=C/c1ccc(Br)cc1
- AC50 [1]: 2.82 µM [rising, partial curve]

SMILES: CC(/C=C/c1ccco1)=N\NC(=O)c1cccnc1
- AC50 [1]: 16.4 µM [falling, single point]

SMILES: O=C(Nc1ccc2c(c1)CCC2)c1ccc(F)cc1
- AC50 [1]: 32.6 µM [falling, single point]

SMILES: CSc1ccc(C(=O)C2CCCN(C(=O)Cc3nonc3C)C2)cc1 (stereo not drawn)
- AC50 [1]: 6.31 µM [rising, single point]

SMILES: C=CCNC(=O)c1onc(CSc2cccc(C)c2)c1C(=O)O
- AC50 [1]: 22.4 µM [falling, partial curve]

SMILES: NC(=O)C1CCCN1S(=O)(=O)c1ccc2ccccc2c1 (stereo not drawn)
- AC50 [1]: 20 µM [rising, partial curve, poor fit]
